Assay results published in PMC7005279, “Cryo-EM study of an archaeal 30S initiation complex gives insights into evolution of translation initiation” (Communications Biology, 2020).

Target: ribosomal protein eL41 of Pyrococcus abyssi, found in the 30S subunit (P. abyssi)
Assay: cryo-EM structure; IC2 complex (Pa-30S:mRNA:aIF1A:aIF2:GDPNP:Met-tRNAi) purified on TALON by N-terminally tagged aIF2β and aIF2α; overall 3.2 Å, classes IC2A 4.2 Å and IC2B 3.3 Å; aIF1A and aIF2 placed by rigid body fitting; both purified

- binding: binds
B1: gamma subunit of translation initiation factor aIF2 from Pyrococcus abyssi (protein, UniProt Q9V1G0 1-411)
chain: MGEKRKSRQAEVNIGMVGHVDHGKTTLTKALTGVWTDTHSEELRRGITIKIGFADAEIRRCPNCGRYSTSPVCPYCGHETEFVRRVSFIDAPGHEALMTTMLAGASLMDGAILVIAANEPCPRPQTREHLMALQIIGQKNIIIAQNKIELVDKEKALENYRQIKEFIEGTVAENAPIIPISALHGANIDVLVKAIEDFIPTPKRDPNKPPKMLVLRSFDVNKPGTPPEKLVGGVLGGSIVQGKLKVGDEIEIRPGVPYEEHGRIKYEPITTEIVSLQAGGQFVEEAYPGGLVGVGTKLDPYLTKGDLMAGNVVGKPGKLPPVWDSLRLEVHLLERVVGTEQELKVEPIKRKEVLLLNVGTARTMGLVTGLGKDEIEVKLQIPVCAEPGDRVAISRQIGSRWRLIGYGIIKE

These are yes or no findings as the source states them, for the method shown. A result given as binding can be weak or reduced; the word gives no strength.
